This experiment deals with dihydropyridine receptor (DHPR)/L-type Ca2+ channel α1 subunit (Cav1.1), skeletal muscle (rabbit (endogenous in skeletal muscle)) (UniProt P07293). The experiment in a line: native gel or EMSA; native PAGE (3-15% linear gradient polyacrylamide, without SDS and 2-mercaptoethanol, silver stained) of the DHPR complex purified whole from rabbit skeletal muscle; single band of ~450 kDa; subunits identified by SDS-PAGE and Western blotting; both purified.

Chains of the proteins cited; added tags and fusions are not shown.
UniProt P07293: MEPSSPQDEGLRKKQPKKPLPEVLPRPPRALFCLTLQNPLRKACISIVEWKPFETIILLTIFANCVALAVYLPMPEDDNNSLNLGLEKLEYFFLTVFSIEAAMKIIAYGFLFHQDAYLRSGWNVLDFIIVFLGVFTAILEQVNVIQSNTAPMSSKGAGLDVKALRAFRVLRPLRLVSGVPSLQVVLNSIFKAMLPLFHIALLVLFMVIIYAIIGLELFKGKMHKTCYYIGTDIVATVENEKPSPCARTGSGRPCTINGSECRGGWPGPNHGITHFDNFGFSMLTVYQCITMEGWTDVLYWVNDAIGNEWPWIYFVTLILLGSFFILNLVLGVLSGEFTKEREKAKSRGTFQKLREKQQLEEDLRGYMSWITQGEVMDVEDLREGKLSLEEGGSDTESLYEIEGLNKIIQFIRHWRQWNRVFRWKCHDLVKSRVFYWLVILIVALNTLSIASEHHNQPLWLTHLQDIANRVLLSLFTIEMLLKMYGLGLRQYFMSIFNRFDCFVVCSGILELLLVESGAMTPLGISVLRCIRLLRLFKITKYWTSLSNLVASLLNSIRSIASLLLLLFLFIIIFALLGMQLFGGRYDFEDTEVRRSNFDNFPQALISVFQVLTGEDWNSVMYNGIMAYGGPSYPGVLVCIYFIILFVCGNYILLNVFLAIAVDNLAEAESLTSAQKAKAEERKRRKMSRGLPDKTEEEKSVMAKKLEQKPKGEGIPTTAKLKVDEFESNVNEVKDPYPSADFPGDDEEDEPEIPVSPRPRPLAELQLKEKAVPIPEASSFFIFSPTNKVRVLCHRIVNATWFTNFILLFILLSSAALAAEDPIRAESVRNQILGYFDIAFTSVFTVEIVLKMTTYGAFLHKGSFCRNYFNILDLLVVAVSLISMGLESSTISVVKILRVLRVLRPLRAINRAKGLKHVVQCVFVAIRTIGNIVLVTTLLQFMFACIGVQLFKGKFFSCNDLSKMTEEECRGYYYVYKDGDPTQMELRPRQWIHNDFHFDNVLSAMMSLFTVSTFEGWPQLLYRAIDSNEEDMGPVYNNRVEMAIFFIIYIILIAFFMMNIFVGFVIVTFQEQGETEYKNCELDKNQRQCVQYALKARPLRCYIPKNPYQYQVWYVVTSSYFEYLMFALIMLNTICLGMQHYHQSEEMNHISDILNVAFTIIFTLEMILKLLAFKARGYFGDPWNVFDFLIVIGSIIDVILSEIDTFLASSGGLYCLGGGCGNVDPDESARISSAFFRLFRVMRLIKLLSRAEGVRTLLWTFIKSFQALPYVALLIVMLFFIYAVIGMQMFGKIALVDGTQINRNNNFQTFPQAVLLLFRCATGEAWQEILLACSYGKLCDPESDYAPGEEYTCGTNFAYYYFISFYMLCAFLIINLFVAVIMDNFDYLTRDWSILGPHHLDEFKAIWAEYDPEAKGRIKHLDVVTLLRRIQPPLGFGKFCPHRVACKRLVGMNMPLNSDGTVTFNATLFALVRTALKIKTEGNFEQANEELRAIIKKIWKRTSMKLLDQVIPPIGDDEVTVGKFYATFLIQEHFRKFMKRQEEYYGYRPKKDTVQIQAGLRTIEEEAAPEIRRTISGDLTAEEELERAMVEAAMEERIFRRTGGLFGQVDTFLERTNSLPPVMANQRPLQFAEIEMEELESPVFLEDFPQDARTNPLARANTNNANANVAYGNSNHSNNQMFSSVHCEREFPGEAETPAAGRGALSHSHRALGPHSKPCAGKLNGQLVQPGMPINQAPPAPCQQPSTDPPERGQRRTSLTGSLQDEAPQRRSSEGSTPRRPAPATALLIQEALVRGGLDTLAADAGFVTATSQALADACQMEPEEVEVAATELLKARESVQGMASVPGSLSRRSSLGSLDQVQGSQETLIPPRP

No constants are given. Whether binding was seen depends on the method and setting. Some entries that bind do so weakly or less than the wild type.

B1: dihydropyridine receptor (DHPR)/L-type Ca2+ channel γ subunit, skeletal muscle (protein, UniProt P19518 1-222)
chain: MSPTEAPKVRVTLFCILVGIVLAMTAVVSDHWAVLSPHMENHNTTCEAAHFGLWRICTKRIALGEDRSCGPITLPGEKNCSYFRHFNPGESSEIFEFTTQKEYSISAAAISVFSLGFLIMGTICALMAFRKKRDYLLRPASMFYVFAGLCLFVSLEVMRQSVKRMIDSEDTVWIEYYYSWSFACACAAFVLLFLGGISLLLFSLPRMPQNPWESCMDAEPEH
Turning to B1, the binding entry was “binds”.

The record behind these values is publication PMC4322351.
